These are literature values, as cited in paper PMC3583338 (Clinical pharmacology and therapeutics, 2008).

SMILES strings stand for the structures.

Turning to `CC(C)(C(=O)O)c1ccc(C(O)CCCN2CCC(C(O)(c3ccccc3)c3ccccc3)CC2)cc1` (stereo not shown) [fexofenadine], the “share of fexofenadine elimination by renal excretion” value was 5-10%.
